Laboratory results: paper PMC12217109, “Development of novel benzamide class I selective lysine deacetylase inhibitors as potent anticancer agents” (Journal of Enzyme Inhibition and Medicinal Chemistry, 2025)

Tested on: NCI-60 tumour cell line panel
Assay: COMPARE analysis of NCI-60 response patterns
Design: species or system human
Conditions: similarity of NCI-60 antitumour activity; ρ >0.7 significant

Structure (SMILES) | matrix COMPARE coefficient (ρ value) with compound 1 | matrix COMPARE coefficient (ρ value) with compound 3 | matrix COMPARE coefficient (ρ value) with compound 4 | matrix COMPARE coefficient (ρ value) with compound 5 | matrix COMPARE coefficient (ρ value) with compound 6
C=C(CN1CCN(c2ccccc2C(F)(F)F)CC1)c1ccc(C(=O)Nc2ccccc2N)cc1 [Compound 3, N-(2-aminophenyl)-4–(3-(4–(2-(trifluoromethyl)phenyl)piperazin-1-yl)prop-1-en-2-yl)benzamide] | 0.13 | – | – | – | –
C=C(CN1CCN(c2cccc(C(F)(F)F)c2)CC1)c1ccc(C(=O)Nc2ccccc2N)cc1 [Compound 4, N-(2-aminophenyl)-4–(3-(4–(3-(trifluoromethyl)phenyl)piperazin-1-yl)prop-1-en-2-yl)benzamide] | – | 0.37 | – | – | –
C=C(CN1CCN(c2ccc(C(F)(F)F)cc2)CC1)c1ccc(C(=O)Nc2ccccc2N)cc1 [Compound 5, N-(2-aminophenyl)-4–(3-(4–(4-(trifluoromethyl)phenyl)piperazin-1-yl)prop-1-en-2-yl)benzamide] | – | 0.80 | 0.31 | – | –
C=C(CN1CCN(c2ccccn2)CC1)c1ccc(C(=O)Nc2ccccc2N)cc1 [Compound 6, N-(2-aminophenyl)-4–(3-(4-(pyridin-2-yl)piperazin-1-yl)prop-1-en-2-yl)benzamide] | – | 0.10 | 0.20 | 0.06 | –
C=C(CN1CCN(c2cccc(C(F)(F)F)n2)CC1)c1ccc(C(=O)Nc2ccccc2N)cc1 [Compound 7, N-(2-aminophenyl)-4–(3-(4–(6-(trifluoromethyl)pyridin-2-yl)piperazin-1-yl)prop-1-en-2-yl)benzamide] | 0.15 | 0.32 | 0.35 | 0.18 | 0.09
